Laboratory results reported in the supplement of paper PMC10849652.
This is one part of the list.

By UniProt entry, the sequences of proteins in these tests, tags left out. Where a name states a change or a piece, a line headed by the entry shows the natural chain unless it says otherwise.
UniProt P63302, whole entry, looked up: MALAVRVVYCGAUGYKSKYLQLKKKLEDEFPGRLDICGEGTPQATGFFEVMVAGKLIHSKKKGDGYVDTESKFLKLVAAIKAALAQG
UniProt Q9NRG7: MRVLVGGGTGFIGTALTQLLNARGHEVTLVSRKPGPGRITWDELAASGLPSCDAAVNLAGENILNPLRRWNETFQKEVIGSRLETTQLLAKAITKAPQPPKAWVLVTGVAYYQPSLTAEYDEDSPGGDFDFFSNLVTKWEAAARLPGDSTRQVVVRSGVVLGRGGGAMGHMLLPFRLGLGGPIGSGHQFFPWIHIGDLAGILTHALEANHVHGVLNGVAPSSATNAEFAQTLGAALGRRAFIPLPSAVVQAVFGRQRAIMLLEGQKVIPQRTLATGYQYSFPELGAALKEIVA
UniProt Q96T21: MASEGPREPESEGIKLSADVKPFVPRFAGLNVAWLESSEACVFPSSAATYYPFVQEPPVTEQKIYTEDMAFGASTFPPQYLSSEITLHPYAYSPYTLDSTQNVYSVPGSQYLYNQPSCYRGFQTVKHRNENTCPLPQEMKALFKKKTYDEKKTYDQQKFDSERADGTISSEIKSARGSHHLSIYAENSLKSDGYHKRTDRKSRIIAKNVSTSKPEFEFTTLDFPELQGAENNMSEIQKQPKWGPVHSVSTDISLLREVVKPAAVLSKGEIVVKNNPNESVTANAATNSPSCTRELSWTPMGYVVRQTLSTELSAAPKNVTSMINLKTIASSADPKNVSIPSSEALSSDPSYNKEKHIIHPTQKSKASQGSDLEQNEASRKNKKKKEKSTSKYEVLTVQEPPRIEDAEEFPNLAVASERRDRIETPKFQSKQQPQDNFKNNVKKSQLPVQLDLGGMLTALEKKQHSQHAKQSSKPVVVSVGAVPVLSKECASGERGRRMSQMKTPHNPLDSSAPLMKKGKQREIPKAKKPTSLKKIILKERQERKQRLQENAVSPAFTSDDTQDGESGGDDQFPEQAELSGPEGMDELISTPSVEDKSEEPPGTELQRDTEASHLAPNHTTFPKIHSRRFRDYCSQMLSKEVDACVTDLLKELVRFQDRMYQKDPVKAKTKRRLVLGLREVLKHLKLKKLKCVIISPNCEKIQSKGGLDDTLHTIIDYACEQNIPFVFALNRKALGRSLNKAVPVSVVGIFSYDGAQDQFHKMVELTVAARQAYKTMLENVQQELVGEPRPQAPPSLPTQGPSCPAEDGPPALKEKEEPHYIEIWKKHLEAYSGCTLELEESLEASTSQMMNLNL
UniProt Q9UPU9: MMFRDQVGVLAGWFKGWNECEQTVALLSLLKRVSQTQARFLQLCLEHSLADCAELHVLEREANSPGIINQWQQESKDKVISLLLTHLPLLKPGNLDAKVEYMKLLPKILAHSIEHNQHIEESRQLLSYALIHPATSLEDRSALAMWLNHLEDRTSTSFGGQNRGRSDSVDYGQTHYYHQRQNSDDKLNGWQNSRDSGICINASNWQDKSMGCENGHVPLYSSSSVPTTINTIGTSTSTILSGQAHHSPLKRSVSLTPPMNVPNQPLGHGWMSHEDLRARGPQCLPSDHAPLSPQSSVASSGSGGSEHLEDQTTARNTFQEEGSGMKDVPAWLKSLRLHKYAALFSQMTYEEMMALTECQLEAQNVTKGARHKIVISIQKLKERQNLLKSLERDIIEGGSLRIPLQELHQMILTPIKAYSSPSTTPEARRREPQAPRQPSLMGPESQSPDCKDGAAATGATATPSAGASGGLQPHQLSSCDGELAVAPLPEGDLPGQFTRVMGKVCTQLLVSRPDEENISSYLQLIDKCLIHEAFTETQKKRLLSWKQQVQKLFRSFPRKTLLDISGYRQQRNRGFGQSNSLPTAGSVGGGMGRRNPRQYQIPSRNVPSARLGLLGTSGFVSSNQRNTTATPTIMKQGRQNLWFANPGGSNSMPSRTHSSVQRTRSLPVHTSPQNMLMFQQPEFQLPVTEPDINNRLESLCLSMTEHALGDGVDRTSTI
UniProt Q9Y467: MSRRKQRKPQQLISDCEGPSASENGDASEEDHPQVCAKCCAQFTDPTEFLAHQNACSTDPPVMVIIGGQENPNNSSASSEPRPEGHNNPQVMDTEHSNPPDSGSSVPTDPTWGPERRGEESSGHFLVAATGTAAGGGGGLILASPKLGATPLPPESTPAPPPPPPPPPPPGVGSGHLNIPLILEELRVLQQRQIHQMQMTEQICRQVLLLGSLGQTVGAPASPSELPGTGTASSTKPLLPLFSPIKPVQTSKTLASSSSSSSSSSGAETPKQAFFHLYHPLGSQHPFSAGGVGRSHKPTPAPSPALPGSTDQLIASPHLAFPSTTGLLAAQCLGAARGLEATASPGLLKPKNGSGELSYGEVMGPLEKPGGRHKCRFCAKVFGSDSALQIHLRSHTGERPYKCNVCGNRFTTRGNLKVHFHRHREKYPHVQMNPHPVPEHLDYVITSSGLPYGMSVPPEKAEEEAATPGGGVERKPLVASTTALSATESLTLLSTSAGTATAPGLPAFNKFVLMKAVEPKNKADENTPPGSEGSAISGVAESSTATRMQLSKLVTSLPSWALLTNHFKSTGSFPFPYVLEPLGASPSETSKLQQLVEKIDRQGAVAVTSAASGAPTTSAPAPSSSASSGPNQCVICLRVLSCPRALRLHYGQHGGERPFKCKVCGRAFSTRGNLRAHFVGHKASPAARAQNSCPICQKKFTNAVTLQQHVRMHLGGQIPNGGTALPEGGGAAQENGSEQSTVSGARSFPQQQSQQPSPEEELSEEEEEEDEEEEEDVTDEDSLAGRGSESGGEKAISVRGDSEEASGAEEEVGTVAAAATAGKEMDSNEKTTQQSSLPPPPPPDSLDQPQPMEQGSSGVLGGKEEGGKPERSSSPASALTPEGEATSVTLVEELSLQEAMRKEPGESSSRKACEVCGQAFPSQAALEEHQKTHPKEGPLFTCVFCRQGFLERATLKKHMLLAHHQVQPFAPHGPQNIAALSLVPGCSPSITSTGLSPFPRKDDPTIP
UniProt Q6SPF0: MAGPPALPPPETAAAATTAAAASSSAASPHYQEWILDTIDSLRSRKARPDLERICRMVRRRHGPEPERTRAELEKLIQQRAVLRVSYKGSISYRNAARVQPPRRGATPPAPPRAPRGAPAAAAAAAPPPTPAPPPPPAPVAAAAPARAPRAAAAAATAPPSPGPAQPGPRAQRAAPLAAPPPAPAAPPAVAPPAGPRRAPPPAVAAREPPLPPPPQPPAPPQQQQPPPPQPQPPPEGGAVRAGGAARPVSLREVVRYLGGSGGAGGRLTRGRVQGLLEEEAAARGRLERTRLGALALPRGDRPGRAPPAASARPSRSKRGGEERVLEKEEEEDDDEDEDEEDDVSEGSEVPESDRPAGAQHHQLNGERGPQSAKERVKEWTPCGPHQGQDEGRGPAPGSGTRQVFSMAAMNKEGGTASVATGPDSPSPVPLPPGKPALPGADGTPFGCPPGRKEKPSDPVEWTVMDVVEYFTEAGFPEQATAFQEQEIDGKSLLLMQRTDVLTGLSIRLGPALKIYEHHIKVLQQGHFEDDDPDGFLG
UniProt Q8IZE3: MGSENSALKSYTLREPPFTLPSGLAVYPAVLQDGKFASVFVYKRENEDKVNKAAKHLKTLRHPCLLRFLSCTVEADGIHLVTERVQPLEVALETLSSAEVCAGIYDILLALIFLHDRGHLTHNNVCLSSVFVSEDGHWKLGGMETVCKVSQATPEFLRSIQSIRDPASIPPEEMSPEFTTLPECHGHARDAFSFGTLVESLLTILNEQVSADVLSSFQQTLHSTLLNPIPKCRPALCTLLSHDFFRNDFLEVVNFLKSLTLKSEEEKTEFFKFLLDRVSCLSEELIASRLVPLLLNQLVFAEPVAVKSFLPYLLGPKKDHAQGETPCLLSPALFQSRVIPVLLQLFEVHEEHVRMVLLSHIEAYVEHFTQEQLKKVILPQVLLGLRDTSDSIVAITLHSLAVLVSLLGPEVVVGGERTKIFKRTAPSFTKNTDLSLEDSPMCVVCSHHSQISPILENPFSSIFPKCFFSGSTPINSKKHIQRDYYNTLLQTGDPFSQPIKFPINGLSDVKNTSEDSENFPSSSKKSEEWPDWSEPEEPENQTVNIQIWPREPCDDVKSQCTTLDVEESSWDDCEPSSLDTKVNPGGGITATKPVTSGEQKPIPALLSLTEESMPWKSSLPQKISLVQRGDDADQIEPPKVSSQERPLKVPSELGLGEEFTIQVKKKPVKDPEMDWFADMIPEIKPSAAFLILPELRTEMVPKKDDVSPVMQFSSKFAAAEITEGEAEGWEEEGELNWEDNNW

What was measured:
Experiment in all cases: log2 fold change, soluble protein after heating vs DMSO (PISA); higher = thermal stabilisation; K562 lysate, 10 uM; active = over 0.2 and 3.5 SD of the protein, either way, in both replicates (recomputed)
alvocidib = compound: CN1CC[C@H](c2c(O)cc(O)c3c(=O)cc(-c4ccccc4Cl)oc23)[C@H](O)C1 [alvocidib]
In short: (§1)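 Log-two fold change in thermal stability relative to solvent controls is reported from duplicates. For each sample, crude K562 extract from dounce-homogenised pellets in PBS pH 7.4 with 1 mM MgCl2, at 1 mg/mL protein, was treated with 10 μM compound for 30 min. Aliquots heated for 3 min across 48°C-58°C were pooled, brought to 0.5% NP-40 at 4°C and cleared at 21,000xg for 90 min. The supernatant was quantified by TMTpro 16plex LC-MS/MS with channel sums equalised.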

Tubastatin A = compound: CN1CCc2c(c3ccccc3n2Cc2ccc(C(=O)NO)cc2)C1 [Tubastatin A]
In short: as §1

[1] = compound: COc1cc2nc(-c3cc(F)ccc3O)nc(N[C@@H]3CNC[C@H]3C(C)(C)O)c2cc1OC
In short: as §1

lapatinib = compound: CS(=O)(=O)CCNCc1ccc(-c2ccc3ncnc(Nc4ccc(OCc5cccc(F)c5)c(Cl)c4)c3c2)o1 [lapatinib]
In short: as §1

crizotinib = compound: C[C@@H](Oc1cc(-c2cnn(C3CCNCC3)c2)cnc1N)c1c(Cl)ccc(F)c1Cl [crizotinib]
In short: as §1

[2] = compound: C[C@H](C1=CC=C(C=C1)C(=O)NC2=C3C=CNC3=NC=C2)N
In short: as §1

gandotinib = compound: Cc1cc(Nc2cc(CN3CCOCC3)c3nc(C)c(Cc4ccc(Cl)cc4F)n3n2)n[nH]1 [gandotinib]
In short: as §1

doramapimod = compound: Cc1ccc(-n2nc(C(C)(C)C)cc2NC(=O)Nc2ccc(OCCN3CCOCC3)c3ccccc23)cc1 [doramapimod]
In short: as §1

[3] = compound: Cc1cccc(CC(=O)N2CCc3c2ccc(-c2cn(C)c4ncnc(N)c24)c3F)n1
In short: as §1

[4] = compound: CNC(=O)C1=CC=CC=C1NC2=NC(=NC=C2Cl)NC3=C(C=C(C=C3)N4CCOCC4)OC
In short: as §1

alisertib = compound: COc1cc(Nc2ncc3c(n2)-c2ccc(Cl)cc2C(c2c(F)cccc2OC)=NC3)ccc1C(=O)O [alisertib]
In short: as §1

gefitinib = compound: COc1cc2ncnc(Nc3ccc(F)c(Cl)c3)c2cc1OCCCN1CCOCC1 [gefitinib]
In short: as §1

pictilisib = compound: CS(=O)(=O)N1CCN(Cc2cc3nc(-c4cccc5[nH]ncc45)nc(N4CCOCC4)c3s2)CC1 [pictilisib]
In short: as §1

bafetinib = compound: Cc1ccc(NC(=O)c2ccc(CN3CC[C@H](N(C)C)C3)c(C(F)(F)F)c2)cc1Nc1nccc(-c2cncnc2)n1 [bafetinib]
In short: as §1

defactinib = compound: CNC(=O)c1ccc(Nc2ncc(C(F)(F)F)c(NCc3nccnc3N(C)S(C)(=O)=O)n2)cc1 [defactinib]
In short: as §1

[5] = compound: CNc1nc(-c2ccc3c(N)n[nH]c3c2)cc(N2C[C@@H](C(=O)NC3CCCCC3)CC[C@H]2C)n1
In short: as §1

encorafenib = compound: COC(=O)N[C@@H](C)CNc1nccc(-c2cn(C(C)C)nc2-c2cc(Cl)cc(NS(C)(=O)=O)c2F)n1 [encorafenib]
In short: as §1

[6] = compound: COC(=O)[C@H](CCSC)NC(=O)C1=C(C=C(C=C1)NC[C@H](CS)N)C2=CC=CC=C2
In short: as §1

duvelisib = compound: C[C@H](Nc1ncnc2nc[nH]c12)c1cc2cccc(Cl)c2c(=O)n1-c1ccccc1 [duvelisib]
In short: as §1

tozasertib = compound: Cc1cc(Nc2cc(N3CCN(C)CC3)nc(Sc3ccc(NC(=O)C4CC4)cc3)n2)n[nH]1 [tozasertib]
In short: as §1

Measured: log2 fold change

SELENOW (UniProt P63302)
inactive: alvocidib -0.069 | Tubastatin A 0 | [1] -0.008 | lapatinib -0.038 | crizotinib 0.027 | [2] 0.056 | gandotinib 0.148 | doramapimod -0.06 | [3] -0.05

SDR39U1 (UniProt Q9NRG7)
inactive: alvocidib -0.099 | Tubastatin A -0.043 | [4] 0.165 | alisertib 0.114 | [1] -0.243 | gefitinib -0.099 | lapatinib 0.249 | pictilisib -0.298 | [2] 0.036 | gandotinib 0.549 | bafetinib 0.217 | [3] 0.024

SECISBP2 (UniProt Q96T21)
inactive: alvocidib 0.089 | Tubastatin A -0.049 | defactinib 0.031 | [5] 0.081 | encorafenib 0 | [6] -0.211 | alisertib 0.013 | [1] 0.293 | gefitinib -0.191 | lapatinib -0.191 | pictilisib -0.075 | crizotinib -0.044 | [2] -0.163 | duvelisib 0.044 | gandotinib 0.139 | tozasertib -0.071 | doramapimod -0.164 | bafetinib -0.173 | [3] -0.363

SAMD4A (UniProt Q9UPU9)
inactive: alvocidib 0.039 | Tubastatin A -0.428 | [4] -0.01 | defactinib 0.001 | [5] 0.04 | encorafenib 0.009 | [6] -0.032 | [1] 0.035 | lapatinib 0.282 | pictilisib 0.047 | crizotinib -0.041 | [2] -0.064 | duvelisib -0.046 | gandotinib -0.036 | tozasertib 0.088 | doramapimod 0.019 | bafetinib -0.215 | [3] 0.101

SALL2 (UniProt Q9Y467)
inactive: alvocidib 0.09 | Tubastatin A -0.098 | [4] 0.048 | [5] 0.006 | encorafenib 0.276 | [6] -0.159 | alisertib -0.058 | [1] -0.078 | gefitinib -0.194 | lapatinib 0.149 | pictilisib -0.051 | crizotinib 0.026 | [2] -0.016 | duvelisib -0.042 | gandotinib -0.095 | tozasertib -0.167 | doramapimod -0.043 | bafetinib -0.011 | [3] 0.175

SAMD1 (UniProt Q6SPF0)
inactive: alvocidib -0.065 | Tubastatin A -0.057 | [5] -0.086 | encorafenib 0.103 | [6] -0.039 | alisertib -0.073 | [1] -0.029 | gefitinib -0.037 | lapatinib 0.004 | crizotinib -0.078 | [2] -0.362 | duvelisib 0.149 | gandotinib 0.178 | tozasertib 0.134 | doramapimod 0.092 | [3] 0.08

SCYL3 isoform 2 (UniProt Q8IZE3)
inactive: alvocidib 0 | Tubastatin A -0.04 | [4] 0.023 | defactinib 0.007 | [5] -0.011 | encorafenib 0.025 | [6] -0.055 | alisertib -0.055 | gefitinib 0.062 | pictilisib 0.017 | crizotinib -0.128 | [2] -0.034 | duvelisib 0.056 | gandotinib -0.065 | tozasertib 0.002 | doramapimod 0.019 | bafetinib -0.034 | [3] 0.162
